According to paper PMC9735679, “Identification and Evolution of a Natural Tetr Protein Based on Molecular Docking and Development of a Fluorescence Polari-Zation Assay for Multi-Detection of 10 Tetracyclines in Milk” (Foods, 2022):

Test: Recovery from standard fortified blank milk samples by FPA
Conditions: n = 6

| SMILES | Inter-Assay Recovery (added 10 ng/g) [%] | Intra-Assay Recovery (added 10 ng/g) [%] | Inter-Assay Recovery (added 100 ng/g) [%] | Intra-Assay Recovery (added 100 ng/g) [%] |
| --- | --- | --- | --- | --- |
| CN(C)[C@@H]1C(O)=C(C(N)=O)C(=O)[C@@]2(O)C(O)=C3C(=O)c4c(O)cccc4[C@@](C)(O)[C@H]3C[C@@H]12 [TC, tetracycline] | 81.2 | 88.1 | 93.5 | 87.2 |
| CN(C)[C@@H]1C(O)=C(C(=O)NCNCCCC[C@H](N)C(=O)O)C(=O)[C@@]2(O)C(O)=C3C(=O)c4c(O)cccc4[C@@](C)(O)[C@H]3C[C@@H]12 [LMC, Lymecycline] | 90.2 | 82.4 | 95.4 | 82.5 |
